Results are given in words; binding and its absence hold for the method and conditions named. In cells and extracts the contact can be indirect. Some results given as binding are weak or reduced against the parent protein; the word gives no strength.

By UniProt entry, the sequences of proteins in these tests, tags left out.
UniProt Q8WUM4: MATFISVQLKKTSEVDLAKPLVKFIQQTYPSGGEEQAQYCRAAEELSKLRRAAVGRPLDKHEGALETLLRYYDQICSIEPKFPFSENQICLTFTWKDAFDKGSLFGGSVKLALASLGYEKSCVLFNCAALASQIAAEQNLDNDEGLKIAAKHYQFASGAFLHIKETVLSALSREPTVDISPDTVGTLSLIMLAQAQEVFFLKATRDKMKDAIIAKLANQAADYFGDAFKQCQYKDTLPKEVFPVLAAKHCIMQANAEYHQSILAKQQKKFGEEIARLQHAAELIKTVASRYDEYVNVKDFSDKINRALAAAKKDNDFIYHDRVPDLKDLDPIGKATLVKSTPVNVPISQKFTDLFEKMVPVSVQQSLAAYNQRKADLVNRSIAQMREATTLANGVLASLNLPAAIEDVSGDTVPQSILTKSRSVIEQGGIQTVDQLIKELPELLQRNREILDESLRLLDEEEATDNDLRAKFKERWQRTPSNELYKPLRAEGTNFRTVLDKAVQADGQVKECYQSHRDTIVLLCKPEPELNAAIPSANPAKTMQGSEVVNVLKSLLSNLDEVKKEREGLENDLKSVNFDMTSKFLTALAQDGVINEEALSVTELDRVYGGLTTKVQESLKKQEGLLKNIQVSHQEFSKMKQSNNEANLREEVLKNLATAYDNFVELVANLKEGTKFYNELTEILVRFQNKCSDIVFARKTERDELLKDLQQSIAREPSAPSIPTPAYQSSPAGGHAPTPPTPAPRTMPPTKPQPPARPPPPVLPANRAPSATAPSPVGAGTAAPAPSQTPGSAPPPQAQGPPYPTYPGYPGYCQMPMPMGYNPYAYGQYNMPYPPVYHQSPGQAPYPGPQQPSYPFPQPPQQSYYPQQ
UniProt P17931: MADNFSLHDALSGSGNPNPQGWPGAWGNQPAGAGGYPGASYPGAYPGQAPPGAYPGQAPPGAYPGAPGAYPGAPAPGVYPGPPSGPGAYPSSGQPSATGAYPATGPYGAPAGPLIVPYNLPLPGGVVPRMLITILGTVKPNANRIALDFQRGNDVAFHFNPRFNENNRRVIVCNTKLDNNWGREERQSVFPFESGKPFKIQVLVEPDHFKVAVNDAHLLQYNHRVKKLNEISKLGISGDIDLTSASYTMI

The target of the experiment is ALG-2 interacting protein X (Alix) (human (endogenous in Magi-5 (HeLa) and HEK293T)) (UniProt Q8WUM4). Kind of experiment: co-IP; Magi-5 cells transfected with pCRF07_BC-wt or pCRF07_BC-7d, 48 h at 37 °C; lysates immunoprecipitated with isotype IgG control, anti-Alix or anti-Gag (p24) and immunoblotted; bands quantified by densitometry. In general terms: Immunoblotting shows a protein as a band on a membrane.

Take Galectin-3 (from UniProt P17931 1-250): the binding entry is “binds”.

The values above are taken from publication PMC7216183.
